# Paper PMC5394236
# Protein sequences, listed by entry. Tags and fused reporters are not part of them. Residues count along the entry.
# UniProt Q07954, residues 4445-4544: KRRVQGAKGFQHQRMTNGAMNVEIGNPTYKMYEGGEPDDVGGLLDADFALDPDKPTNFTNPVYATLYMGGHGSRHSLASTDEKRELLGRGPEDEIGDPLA
# UniProt P37231: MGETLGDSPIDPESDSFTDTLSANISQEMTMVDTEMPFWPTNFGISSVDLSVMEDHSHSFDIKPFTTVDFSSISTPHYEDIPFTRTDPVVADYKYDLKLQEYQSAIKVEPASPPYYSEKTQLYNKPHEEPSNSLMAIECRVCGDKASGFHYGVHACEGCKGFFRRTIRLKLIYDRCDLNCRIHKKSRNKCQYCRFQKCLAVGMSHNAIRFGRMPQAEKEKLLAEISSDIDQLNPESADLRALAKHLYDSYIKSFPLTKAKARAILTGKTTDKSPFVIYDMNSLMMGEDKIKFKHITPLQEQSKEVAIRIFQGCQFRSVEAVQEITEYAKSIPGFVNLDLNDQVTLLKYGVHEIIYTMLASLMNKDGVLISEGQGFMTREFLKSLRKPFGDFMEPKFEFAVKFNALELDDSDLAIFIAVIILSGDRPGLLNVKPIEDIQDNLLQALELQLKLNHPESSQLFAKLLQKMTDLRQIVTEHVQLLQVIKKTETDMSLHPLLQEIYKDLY
# These are yes or no findings as the source states them, for the method shown. Some results given as binding are weak or reduced against the parent protein; the word gives no strength.
# Target: GST-tagged Lrp1 ICD (a.a. 4445–4544 of human LRP1) (human) (UniProt Q07954)
# Assay: pull-down; GST pull-down with GST-Lrp1-ICD and recombinant Pparγ protein; both purified
substance,measurement,value
recombinant Pparγ protein (from UniProt P37231 1-505),binding,binds
